Measurements as given in PubChem BioAssay AID504834 (National Center for Advancing Translational Sciences (NCATS), 2011).
The campaign covered roughly 320,000 compounds. About 22,000 (6.9%) were called active. The inconclusive results got no clear call from the source; some entries with a clear call stand among them for comparison. Calls come from the whole dose curve; as a rule, active = well fitted inhibition curve with a large enough effect; inconclusive = small, poorly fitted or top-dose-only effect, or another doubt; inactive = no such curve, though single readings can be large or run the other way. Potencies of inconclusive entries are doubtful fits and often do not repeat.

experiment: Primary qHTS for delayed death inhibitors of the malarial parasite plastid, 96 hour incubation; details: P. falciparum luciferase reporter growth; series mostly up to 28.7 µM; activity change, negative = inhibition: at the top concentration
Summary of the method: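 Parasite growth measured via integrated firefly luciferase reporter in P. falciparum. Infected erythrocytes at 2% hematocrit, 0.05% parasitemia final were treated 96 hours at 37 C under 5% CO2, and luminescence was read.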
% is set by controls: 0 for no effect and ±100 for the full control effect; potency is the fitted concentration of half-maximal effect.

| SMILES | Potency | activity change, negative = inhibition |
| --- | --- | --- |
| CCOC(=O)[C@H]1[C@H]2COc3ccc(Cl)cc3[C@@H]2N2C(=O)CN(CC3CCCO3)C(=O)[C@@]12C (stereo partly specified) | inconclusive: 1.65 µM [inhibitor, partial curve, poor fit] | – |
| CCOC(=O)C1CCN(c2c(NCc3ccc(C(=O)Nc4ccc(C)cc4)cc3)c(=O)c2=O)CC1 | active: 4.15 µM | – |
| Cc1ccc(CNC(=O)C2CCC(=O)N(C3CC3)C2)cc1 (stereo unspecified) | – | inactive: 5.8% |
| O=C(Nc1cccc(S(=O)(=O)Nc2ccc(Cl)cc2)c1)c1cc2c(s1)CCCC2 | inconclusive: 18.5 µM [inhibitor, single point] | – |
| Cc1ccnc(Sc2ccc([N+](=O)[O-])cn2)n1 | active: 13.1 µM | – |
| CCNC(=O)Cc1c(OC)ccc2cc(Br)ccc12 | – | inactive: 12.3% |
| CC(C)(CO)NC(=O)CC1C(=O)NCCN1CC(c1ccccc1)c1ccccc1 (stereo unspecified) | inconclusive: 11.7 µM [inhibitor, partial curve, poor fit] | – |
| Cc1cccc(NS(=O)(=O)c2cccc(C(=O)NCc3ccccc3CN3CCOCC3)c2)c1 | inconclusive: 18.5 µM [inhibitor, single point] | – |
| CN(C)CCCNCC(=O)c1c(-c2ccccc2)n(C)c2ccccc12 | inconclusive: 10.4 µM [inhibitor, single point] | – |
| CCC1(c2ccccc2)NC(=O)N(CC(=O)Nc2cc(S(=O)(=O)N3CCCCC3)ccc2OC(C)C)C1=O (stereo unspecified) | inconclusive: 1.17 µM [inhibitor, partial curve] | – |
| CCCOc1ccc(/C(O)=C2/C(=O)C(=O)N(CCN(C)C)C2c2ccc(OC)c(OC)c2)cc1 (stereo unspecified) | inconclusive: 9.28 µM [inhibitor, partial curve, poor fit] | – |
| CCc1nc(SCC(=O)Nc2ccc(Br)cn2)n[nH]1 | – | inactive: 74.8% |
| CCn1c(=O)cc(SCC(=O)Nc2cccnc2)c2ccccc21 | active: 11.7 µM | – |
| CCOC(=O)c1nc(S(C)(=O)=O)ncc1Cl | inconclusive: 4.15 µM [inhibitor, partial curve, poor fit] | – |
| CCOc1ccc(-c2nonc2NC(=O)c2ccco2)cc1 | active: 10.4 µM | – |
| COc1ccc2[nH]c3c(N4CCc5ccccc5C4)ncnc3c2c1 | inconclusive: 4.15 µM [inhibitor, partial curve] | – |
| CN(CC(=O)Nc1ccc(F)cc1)C(=O)CN1C(=O)NC2(CCCC2)C1=O | – | inactive: 12.5% |
| Cc1ccc(C)c(Nc2cc(C(=O)NCc3cccnc3)c3ccccc3n2)c1 | inconclusive: 10.4 µM [inhibitor, single point] | – |
| O=C(CSCc1ccc([N+](=O)[O-])cc1)NN=C1CCCCCC1 | inconclusive: 3.29 µM [inhibitor, partial curve, poor fit] | – |
| COc1ccc(Br)cc1/C=N/NC(=O)C[n+]1ccccc1 | – | inactive: 30.5% |
| Cc1ccc2c3c(cccc13)-c1ccccc1C2=O | – | inactive: 307% |
| COc1ccc(CN(C)C(=O)Cc2ccc(OC)c(S(=O)(=O)N3CCOCC3)c2)cc1OC | inconclusive: 0.0657 µM [inhibitor, full curve, poor fit] | – |
| C=CCN(C(=O)CC(NC(C)=O)c1ccccc1)c1nc(-c2ccc(S(C)(=O)=O)cc2)cs1 (stereo unspecified) | inconclusive: 5.22 µM [inhibitor, partial curve] | – |
| Cc1cc(Sc2ncnc(N)c2[N+](=O)[O-])ncn1 | – | inactive: 10.5% |

Record cards, from the list above. Order of values: Potency	activity change, negative = inhibition
`Cc1cc(Sc2ncnc(N)c2[N+](=O)[O-])ncn1` as listed: –	inactive: 10.5%
`Cc1ccc2c3c(cccc13)-c1ccccc1C2=O` as listed: –	inactive: 307%
`COc1ccc2[nH]c3c(N4CCc5ccccc5C4)ncnc3c2c1` as listed: inconclusive: 4.15 µM [inhibitor, partial curve]	–
`CC(C)(CO)NC(=O)CC1C(=O)NCCN1CC(c1ccccc1)c1ccccc1` (stereo unspecified) as listed: inconclusive: 11.7 µM [inhibitor, partial curve, poor fit]	–

2 of the compounds above, with each value named:
CN(C)CCCNCC(=O)c1c(-c2ccccc2)n(C)c2ccccc12
  Potency: inconclusive: 10.4 µM [inhibitor, single point]
COc1ccc(Br)cc1/C=N/NC(=O)C[n+]1ccccc1
  activity change, negative = inhibition: inactive: 30.5%

(listing goes on)

| SMILES | Potency | activity change, negative = inhibition |
| --- | --- | --- |
| NC(=O)[C@H]1CC2(CC(c3cccc(NC(=O)COc4ccc(Cl)cc4)c3)=NO2)CN1C(=O)C(c1ccccc1)c1ccccc1 (stereo partly specified) | inconclusive: 14.7 µM [inhibitor, single point] | – |
| C[n+]1cccc2c(Br)ccc([O-])c21 | active: 2.33 µM | – |
| COc1ccc(N2CC(C(=O)N[C@@H](CC(C)C)C(=O)NC3CCCCC3)CC2=O)cc1 (stereo partly specified) | active: 14.7 µM | – |
| COc1ccc(C(=O)NCc2cccc(Cl)c2)cc1S(=O)(=O)N1CCOCC1 | – | inactive: -4.89% |
| O=C(CN1C(=O)S/C(=C\c2ccc(O)cc2)C1=O)c1ccccc1 | inconclusive: 13.1 µM [inhibitor, single point] | – |
| O=[N+]([O-])c1ccccc1S(=O)(=O)Nc1ccc(-c2ccc(N3CCCC3)nn2)cc1 | inconclusive: 11.7 µM [inhibitor, single point] | – |
| CC(=O)Nc1ccc(S(=O)(=O)NCCC(=O)N2CCN(C(c3ccccc3)c3ccccc3)CC2)cc1 | active: 10.4 µM | – |
| O=C(CNC(=O)c1ccco1)OCc1ccc(C(=O)Oc2ccccc2)cc1 | inconclusive: 18.5 µM [inhibitor, single point] | – |
| Cc1cc([N+](=O)[O-])ccc1NC(=O)C(C)NC1CCCCC1 (stereo unspecified) | inconclusive: 10.4 µM [inhibitor, single point] | – |
| CC1CCCN(C2=C(NS(=O)(=O)c3ccc(Cl)cc3)C(=O)c3ccccc3C2=O)C1 (stereo unspecified) | active: 11.7 µM | – |
| Cc1cc(C)c2cc(CN(CCO)C(=O)NC3CCCCC3)c(=O)[nH]c2c1 | inconclusive: 13.1 µM [inhibitor, single point] | – |
| CC(C)N(Cc1ccccc1)S(=O)(=O)c1cccs1 | – | inactive: 27.1% |
| O=C(O)c1ccc(Nc2nc3ccc(Cl)cc3[nH]2)cc1 | – | inactive: 33.3% |
| COc1ccc(S(=O)(=O)N(C)c2ccc(C(=O)N3CCCC3)cc2)cc1 | inconclusive: 0.0828 µM [inhibitor, full curve, poor fit] | – |
| CC(=O)c1ccc(S(=O)(=O)N2CCC3(CC2)CC(=O)c2ccccc2O3)cc1 | inconclusive: 14.7 µM [inhibitor, single point] | – |
| Cc1ccc(C(=O)CCC(=O)Nc2cc(C)ccn2)cc1 | inconclusive: 10.4 µM [inhibitor, single point] | – |
| O=C(CN1CC(=O)Oc2ccccc21)OCC(=O)c1cccc(Br)c1 | inconclusive: 9.28 µM [inhibitor, single point] | – |
| Cc1cccc[n+]1CC(=O)c1ccc2c(c1)OCCO2 | inconclusive: 18.5 µM [inhibitor, single point] | – |
| CN(Cc1ccccc1F)C(=O)C(Cc1ccccc1)NC(=O)c1ccccc1 (stereo unspecified) | inconclusive: 18.5 µM [inhibitor, single point] | – |
| COc1ccc(C(=O)/C(Br)=C/C(=O)O)cc1 | inconclusive: 16.9 µM [inhibitor, single point] | – |
| Cn1c(Sc2ccccc2Cl)c(C=O)c2ccccc21 | inconclusive: 11.7 µM [inhibitor, single point] | – |
| CC(C)n1cc(/C=N\NC(=O)c2cc3c(ccc4ccccc43)o2)c2ccccc21 | – | inactive: 12% |
| Cn1nc(C(F)(F)F)c(-c2ccc(F)cc2)c1NC(=O)c1ccco1 | inconclusive: 18.5 µM [inhibitor, single point] | – |
| CC(C)c1ccccc1NC(=S)N1CCN(S(=O)(=O)c2cccs2)CC1 | active: 5.22 µM | – |

| SMILES | Potency | activity change, negative = inhibition |
| --- | --- | --- |
| COCCCNc1nc2c(-c3ccc(C)cc3)nnn2c2ccccc12 | – | inactive: 12.3% |
| Cc1ccnc(NC(=O)c2cccc(S(=O)(=O)N3CCN(c4ccc(F)cc4)CC3)c2)c1 | inconclusive: 18.5 µM [inhibitor, single point] | – |
| CS(=O)(=O)c1ccc(Cl)c(NC(=O)COC(=O)c2ccc(-n3cnnn3)cc2)c1 | inconclusive: 11.7 µM [inhibitor, single point] | – |
| Cc1cccc(Oc2cc(NC(=O)c3ccccc3)cc([N+](=O)[O-])c2)c1 | inconclusive: 5.22 µM [inhibitor, partial curve, poor fit] | – |
| O=S(=O)(c1ccc(OCC(O)CNCc2ccco2)c(Cl)c1)N1CCOCC1 (stereo unspecified) | inconclusive: 18.5 µM [inhibitor, single point] | – |
| O=C(Nc1ccc(Cl)cn1)c1ccc(COc2ccccc2Br)o1 | – | inactive: -1.83% |
| Cc1ccc(CSCC2Nc3ccc(C(=O)N4CCN(c5ccc(F)cc5)CC4)cc3NC2=O)cc1 (stereo unspecified) | – | inactive: -3.25% |
| O=C(NCc1cccs1)C1CC(c2ccc(F)cc2)=NO1 (stereo unspecified) | inconclusive: 11.7 µM [inhibitor, single point] | – |
| O=C(Nc1ccc(Cl)cc1)Nc1ccccn1 | – | inactive: 6.68% |
| CCOC(=O)c1ccc(NC(=S)N(CCCN2CCCC2)Cc2ccco2)cc1 | inconclusive: 18.5 µM [inhibitor, single point] | – |
| O=C(O)c1ccccc1SCC(=O)N1CCc2ccccc21 | – | inactive: 118% |
| Cc1nn(C(C)C(=O)NCCCc2ccccc2)c(=O)c2nn(-c3ccccc3)c(C)c12 (stereo unspecified) | inconclusive: 4.65 µM [inhibitor, partial curve] | – |
| COc1cccc(OC)c1C(=O)NC(C)CCc1ccccc1 (stereo unspecified) | inconclusive: 18.5 µM [inhibitor, single point] | – |
| O=C(CNc1cccc2ccccc12)N/N=C/c1ccc[nH]1 | – | inactive: -3.14% |
| CC1(C)SC(=S)N(/N=C/c2cccnc2)C1N(O)C(=O)Nc1ccccc1 (stereo unspecified) | inconclusive: 18.5 µM [inhibitor, single point] | – |
| Cc1cc2nnc(SCCCCN3C(=O)c4ccccc4C3=O)n2c2ccccc12 | inconclusive: 5.22 µM [inhibitor, partial curve, poor fit] | – |
| Cc1cc(NC2CCCC2)n2nc(C)c(-c3ccccc3)c2n1 | inconclusive: 2.62 µM [inhibitor, full curve] | – |
| CCN(CC)C(=O)N1c2ccccc2C=Cc2ccccc21 | – | inactive: -0.419% |
| Cc1ccc(OCC(=O)Nc2cc(C(C)(C)C)on2)cc1C | – | inactive: 5.98% |
| Cc1nc(SCC(=O)Nc2nccs2)c(C#N)c(C)c1C | – | inactive: 43.2% |
| Cc1cc(-c2csc(Nc3ccccn3)n2)ccc1F | inconclusive: 0.0185 µM [inhibitor, full curve, poor fit] | – |
| O=C(Nc1ccc(CN2CCCCC2)cc1)c1cc(Br)ccc1Cl | inconclusive: 18.5 µM [inhibitor, single point] | – |
| CC1CCCN(C(C(=O)Nc2ccc3c(c2)OCCO3)c2ccccc2)C1 (stereo unspecified) | inconclusive: 5.86 µM [inhibitor, partial curve, poor fit] | – |
